# Literature values, collected in patent US20040259844A1 (priority 2000, published 2004).
# At least one structure is not confirmed: it was looked up by name or label, or the drawing left a doubt.
# Tested on: retinal ganglion cells
# Conditions: treatment with veratridine
smiles,measurement,value
COc1ccc(C(=O)O[C@H]2CC[C@@]3(C)[C@@H]4CC[C@H]5[C@]6(O)C[C@H](O)[C@@]7(O)[C@@H](CN8C[C@@H](C)CC[C@H]8[C@@]7(C)O)[C@]6(O)C[C@@]53O[C@]24O)cc1OC [veratridine],survival of retinal ganglion cells,increases the survival of retinal ganglion cells
